From the supplement of paper PMC4604168 (melanoma cell lines)
This is one part of the list. Many values rest on one well or one pass, so single values are uncertain.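 Cells were imaged in 1,536-well plates, and nuclei stained with an antibody against cleaved PARP were counted against all DNA-stained nuclei to give the apoptosis fraction. Screening doses were chosen to leave most cells alive, and resting and induced cleaved-PARP levels differ strongly between cell lines.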

The molecules below were run on LB2518-MEL (assay: cleaved PARP positive nuclei fraction relative to DMSO control; melanoma cells; higher = more apoptosis). Conditions: library dose: low library concentration; 72 h.
For `O=C(Nc1cccc(Cl)c1)Nc1ncc(CCNc2ncnc3ccsc23)s1` + COc1cc(N2CCC(N3CCN(C)CC3)CC2)ccc1Nc1ncc(Cl)c(Nc2ccccc2S(=O)(=O)C(C)C)n1 [NVP-TAE684] (first compound 0.0008 µM, partner dose 0.08 µM), the “cleaved PARP positive nuclei fraction” value was 92.3%. With `C[C@]1(c2nc3c(C(N)=O)cccc3[nH]2)CCCN1` [Veliparib] + O=S(=O)(c1ccccc1)N(CC(F)(F)F)c1ccc(C(O)(C(F)(F)F)C(F)(F)F)cc1 [T0901317] (first compound 1.4 µM, partner dose 1.4 µM) the “cleaved PARP positive nuclei fraction” value was 186%. For `Cc1nc(Nc2ncc(C(=O)Nc3c(C)cccc3Cl)s2)cc(N2CCN(CCO)CC2)n1` [dasatanib] + CCc1ccc(CCOc2ccc(CC3SC(=O)NC3=O)cc2)nc1 [pioglitazone] (first compound 0.004 µM, partner dose 2 µM), the “cleaved PARP positive nuclei fraction” value was 87.8%. With `CC1(C)NC(=O)N(c2ccc([N+](=O)[O-])c(C(F)(F)F)c2)C1=O` [nilutamide] + O=c1cc(-c2cccc3c2Sc2ccccc2S3)oc(N2CCOCC2)c1 [KU55933] (first compound 1 µM, partner dose 1 µM) the “cleaved PARP positive nuclei fraction” value was 67%. For `COc1cc(Nc2ncc(F)c(Nc3ccc4c(n3)NC(=O)C(C)(C)O4)n2)cc(OC)c1OC` [Tamatinib] + Oc1nc(-c2ccc(C(F)(F)F)cc2)nc2c1CSCC2 [XAV939] (first compound 0.4 µM, partner dose 2 µM), the “cleaved PARP positive nuclei fraction” value was 87.8%. For `O=C(CCCCCCC(=O)Nc1ccccc1)NO` [vorinostat] + O=C(O)C(=O)Nc1sc2c(c1C(=O)O)CCNC2 [TCS401] (first compound 0.08 µM, partner dose 1.66667 µM), the “cleaved PARP positive nuclei fraction” value was 160%.

The molecules below were run on LOXIMVI in the same assay as above. Conditions: library dose: low library concentration; 72 h.
`O=C(CCCCCCC(=O)Nc1ccccc1)NO` [vorinostat] + COc1ccc2c(c1)CCC1C2CCC2(C)C(NCCCCCCN3C(=O)C=CC3=O)CCC12 [U73122] (first compound 0.08 µM, partner dose 0.4 µM) was tested, and the “cleaved PARP positive nuclei fraction” value was 84%. With `Cn1nnc2c(C(N)=O)ncn2c1=O` [temozolomide] + COc1ccc(COc2ccc(Cc3cnc(N)nc3N)cc2OC)cc1 [GW2580] (first compound 2 µM, partner dose 1 µM) the “cleaved PARP positive nuclei fraction” value was 59.6%. `OCCn1cc(-c2cnc3nnn(Cc4ccc5ncccc5c4)c3n2)cn1` + COc1ccc(-c2ccc3c(N4CCOCC4)nc(N4C[C@@H](C)O[C@@H](C)C4)nc3n2)cc1CO [KU0063794] (first compound 1 µM, partner dose 0.02 µM) was tested, and the “cleaved PARP positive nuclei fraction” value was 12.6%. In the case of `Cc1ccc(NC(=O)c2cccc(N(C)C)c2)cc1NC(=O)c1ccc(O)cc1` + Cn1cc(/C=C2\C(=O)Nc3cccnc32)c2ccccc21 [GW441756] (first compound 2 µM, partner dose 0.4 µM), the “cleaved PARP positive nuclei fraction” value is reported as 71.9%. `Cc1ccc(NC(=O)c2cccc(N(C)C)c2)cc1NC(=O)c1ccc(O)cc1` + CCCCCCCCCCCC1=C(O)C(=O)C=C(O)C1=O [Embelin] (first compound 2 µM, partner dose 1.2 µM) was tested, and the “cleaved PARP positive nuclei fraction” value was 105%. `Cn1cncc1[C@@](N)(c1ccc(Cl)cc1)c1ccc2c(c1)c(-c1cccc(Cl)c1)cc(=O)n2C` [tipifarnib] + Cc1cc([N+](=O)[O-])ccc1NS(=O)(=O)c1cc(Cl)ccc1Cl [FH535] (first compound 0.01 µM, partner dose 1 µM) was tested, and the “cleaved PARP positive nuclei fraction” value was 39.4%. In the case of `Cn1c(Nc2ccc(C(F)(F)F)cc2)nc2cc(Oc3ccnc(-c4ncc(C(F)(F)F)[nH]4)c3)ccc21` + COc1ccc2c(c1)CCC1C2CCC2(C)C(NCCCCCCN3C(=O)C=CC3=O)CCC12 [U73122] (first compound 0.08 µM, partner dose 0.4 µM), the “cleaved PARP positive nuclei fraction” value is reported as 183%. With `Cn1cncc1[C@@](N)(c1ccc(Cl)cc1)c1ccc2c(c1)c(-c1cccc(Cl)c1)cc(=O)n2C` [tipifarnib] + Oc1cc(-c2nc(-c3ccccc3)[nH]c2-c2ccncc2)ccc1Cl [L779450] (first compound 0.01 µM, partner dose 0.2 µM) the “cleaved PARP positive nuclei fraction” value was 47.8%. For `OCCn1cc(-c2cnc3nnn(Cc4ccc5ncccc5c4)c3n2)cn1` + O=C(O)C(=O)Nc1sc2c(c1C(=O)O)CCNC2 [TCS401] (first compound 1 µM, partner dose 1.66667 µM), the “cleaved PARP positive nuclei fraction” value was 111%.
